# Source: PubChem BioAssay AID1347076 (National Center for Advancing Translational Sciences (NCATS), 2019)
# Among all 400,000 compounds or so, about 13,000 (3.2%) were called active. The shares of active, inactive and inconclusive entries below differ from those in the screen. The call rests on the fitted dose curve; in most records, active means well fitted cell-killing curve with a large enough effect; inconclusive means small, poorly fitted or top-dose-only effect, or effect the other way; inactive means flat fitted curve, though single readings scatter. Potencies beside an inconclusive call are fits to weak or partial responses and may not hold up. A structure can be active in one record and inactive in another.
# Experiment: qHTS assay for MDR1-selective chemotherapeutics: Primary screen using the drug-selected MDR subline cells KB-V1; further: nearly all actives have a fitted effect of over 60% in size
# Conditions: KB-V1 MDR cells viability, CellTiter-Glo, 72 h; activity change, negative = cytotoxicity: at 46.1 µM (top of the series)
# Procedure, shortened: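 Readout: CellTiter-Glo luminescence, 10 min after addition. Cells: KB-V1 MDR subline, 72 h at 37 degrees C with compound. Analysis: corrected, normalized data fitted to concentration-effect curves.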
# On the % scale 0 is the no-effect control and ±100 the full control effect; potency means the concentration at half of the fitted maximal effect.
Compound,Potency,"activity change, negative = cytotoxicity"
O=C(Nc1nccs1)c1cc(-c2ccccn2)nc2c(Cl)cccc12,"inconclusive: 23.1 µM [cytotoxic, single point]",
Cc1cc(C)cc(N(C(=O)c2nsc(Cl)c2Cl)C(C(=O)NC2CCCC2)c2ccc(O)cc2)c1 (configuration not stated),active: 18.4 µM,
Cc1ccc(NC(=O)c2ccccc2-c2ccc(C(F)(F)F)cc2)cc1S(=O)(=O)N1CCOCC1,,inactive: -9.96%
Cc1ccc(C)c(N2CCN(C(=O)c3ccc(Nc4nc5ccccc5n5nnnc45)cc3)CC2)c1,"inconclusive: 10.3 µM [rising, partial curve, poor fit]",
O=C(CSc1ccc(Cl)cc1)N/N=C/c1cccnc1,"inconclusive: 29.1 µM [rising, single point]",
O=C(/C=C/c1cn(CC(O)CN2CCCCCC2)c2ccccc12)c1cccs1 (configuration not stated),"inconclusive: 20.6 µM [cytotoxic, single point]",
C=CCc1ccccc1OCC(O)CN(C(C)C)C(C)C (configuration not stated),,inactive: -4.6%
Cc1ccc(OCc2nnc(SCC(=O)Nc3ccccc3C(C)C)o2)cc1,,inactive: -1.47%
O=C1CN(C(=O)c2ccc(Br)o2)C(c2ccccc2)c2cc(Cl)ccc2N1 (configuration not stated),"inconclusive: 18.4 µM [cytotoxic, single point]",
Cc1cccc(N2C(=O)c3ccc(C(=O)Nc4ccccn4)cc3C2=O)c1,"inconclusive: 29.1 µM [rising, single point]",
CC(=O)c1ccc(OCC(O)CN2CCN(CCN3C(=O)c4cccc5cccc(c45)C3=O)CC2)cc1 (configuration not stated),"inconclusive: 11.6 µM [cytotoxic, partial curve, poor fit]",
CCc1ccc(-c2cc(C)no2)cc1S(=O)(=O)N1CCN(c2ccc(F)cc2)CC1,active: 11.6 µM,
CC1(c2nnnn2-c2ccc3c(c2)OCCO3)CCC(=O)N1Cc1ccc(F)cc1 (configuration not stated),"inconclusive: 16.4 µM [cytotoxic, partial curve, poor fit]",
CC(=Nc1ccccc1)c1sc2ccccc2c1O,active: 20.6 µM,
COc1ccc(CN2CCC[C@]3(N[C@H](c4ccc(OC)cc4)[C@@H]4C(=O)N(C)C(=O)[C@@H]43)C2=O)cc1,"inconclusive: 0.0052 µM [rising, full curve, poor fit]",
Cc1ccc(S(=O)(=O)CC(=O)Nc2ccc(F)c(F)c2F)cc1,,inactive: 10.7%
Cc1ccc2[nH]c(=O)c(CN(C(=O)c3cccs3)c3ccccc3)cc2c1,active: 3.26 µM,
O=c1c2c(nc3cc(-c4ccccc4)[nH]n13)CCS2,"inconclusive: 18.4 µM [cytotoxic, partial curve, poor fit]",
CC1(c2ccccc2)NC(=O)N(CC(=O)NCc2ccc3c(c2)OCO3)C1=O (configuration not stated),,inactive: 4.93%
Cc1ccc2c(c1)NC(=O)[C@@]1(C)[C@@H](c3ccccc3)[C@H]3COc4ccc(Cl)cc4[C@@H]3N1C2=O,"inconclusive: 20.6 µM [cytotoxic, single point]",
CC1(C)SC(=S)N(/N=C/c2ccccc2O)C1N(O)C(=O)Nc1ccccc1 (configuration not stated),,inactive: 0.118%

Compound,Potency,"activity change, negative = cytotoxicity"
COc1ccc(OCCSCc2nnc(NC(=O)Nc3ccc(Cl)cc3)s2)cc1,"inconclusive: 5.8 µM [cytotoxic, partial curve]",
CC1=C2C3OC(=O)C(C)C3CCC2(C)C=C(Br)C1=O (configuration not stated),"inconclusive: 23.1 µM [cytotoxic, single point]",
O=C(NCC(c1cccs1)N1CCOCC1)c1cc2ccccc2o1 (configuration not stated),"inconclusive: 18.4 µM [cytotoxic, partial curve]",
Cc1cc(C)c(NC(=O)CSc2nnc(-c3ccncc3)n2Cc2ccco2)c(Cl)c1,active: 23.1 µM,
Cc1ccc(Cn2c(/C=C/c3ccco3)nc3ccccc32)cc1,"inconclusive: 23.1 µM [cytotoxic, single point]",
Cc1cccc(C(=O)O)c1NC(=O)c1ccc(F)cc1,"inconclusive: 29.1 µM [rising, single point]",
Cc1ccc(-c2c(C(=O)NCc3ccc(F)cc3)oc(=O)c3ccccc23)cc1,active: 16.4 µM,
CSc1nc(N)nc(SCC(=O)Nc2cccc(F)c2)c1C#N,active: 2.31 µM,
Cc1cccc(NC(=O)c2nc[nH]c2C(=O)N[C@H](C)c2ccccc2)c1,"inconclusive: 29.1 µM [cytotoxic, single point]",
COc1ccc(C(=O)C2CCCN(Cc3cccn3-c3nccs3)C2)cc1OC (configuration not stated),,inactive: -5.45%
CCN1C(=NCc2ccc(OC)cc2)N[C@@H](c2ccccc2)[C@H](C(=O)OC)[C@H]1C,"inconclusive: 29.1 µM [rising, single point]",
CCN(c1ccccc1)S(=O)(=O)c1ccc2c(c1)CCCN2C(C)=O,"inconclusive: 29.1 µM [cytotoxic, single point]",
CCOC(=O)c1oc2ccc3c(c2c1C)C(=O)CC1(CCN(C(=O)OCC)CC1)O3,,inactive: -14.1%
COc1ccc(Nc2nc(C)nc3sc4c(c23)CCC4)cc1O,active: 5.8 µM,
C#CCOCCOCCOCCNc1nc(N2CCN(C(=O)CCCCCCCCCCNC(=O)Cn3cc(C[C@@H](C)O)nn3)CC2)nc(N2CCN(C(=O)CCCCCCCCCCNC(=O)[C@@H]([C@H](C)O)n3cc(C)nn3)CC2)n1,,inactive: 6.44%
COc1ccc(-c2cc(C(=O)Nc3cccc(O)c3)no2)cc1,"inconclusive: 10.3 µM [rising, partial curve, poor fit]",
Cc1ccc(Cn2c(CCCNC(=O)c3ccco3)nc3ccccc32)cc1,,inactive: -25.4%
C=CCn1c(SCc2cccc3ccccc23)nnc1-c1cccnc1,"inconclusive: 16.4 µM [cytotoxic, single point]",
COc1ccc(Nc2nc(-c3cccs3)nc3ccccc23)cc1S(=O)(=O)N1CCOCC1,"inconclusive: 6.51 µM [cytotoxic, partial curve]",
CN(Cc1ccccc1)C(=O)c1cccc(NC(=O)Cc2ccc(NC(=O)C3CCCN(C(=O)CCc4ccccc4)C3)cc2)c1 (configuration not stated),"inconclusive: 3.66 µM [rising, partial curve]",
COc1cc(/C=C2\C(=N)N3N=CSC3=NC2=O)ccc1OS(=O)(=O)c1ccccc1,"inconclusive: 8.2 µM [rising, partial curve]",

# Fetched one by one from the entries so far:
Compound,Potency,"activity change, negative = cytotoxicity"
CCOC(=O)c1oc2ccc3c(c2c1C)C(=O)CC1(CCN(C(=O)OCC)CC1)O3,,inactive: -14.1%
CC1=C2C3OC(=O)C(C)C3CCC2(C)C=C(Br)C1=O (configuration not stated),"inconclusive: 23.1 µM [cytotoxic, single point]",
Cc1cccc(NC(=O)c2nc[nH]c2C(=O)N[C@H](C)c2ccccc2)c1,"inconclusive: 29.1 µM [cytotoxic, single point]",
